Results as given in paper doi:10.1101/2025.10.26.679380.
Results are given in words; binding and its absence hold for the method and conditions named. Binding seen in cells or lysates may run through a third protein. Some results given as binding are weak or reduced against the parent protein; the word gives no strength.

Protein sequences, listed by entry. Tags and fused reporters are not part of them.
UniProt P29590: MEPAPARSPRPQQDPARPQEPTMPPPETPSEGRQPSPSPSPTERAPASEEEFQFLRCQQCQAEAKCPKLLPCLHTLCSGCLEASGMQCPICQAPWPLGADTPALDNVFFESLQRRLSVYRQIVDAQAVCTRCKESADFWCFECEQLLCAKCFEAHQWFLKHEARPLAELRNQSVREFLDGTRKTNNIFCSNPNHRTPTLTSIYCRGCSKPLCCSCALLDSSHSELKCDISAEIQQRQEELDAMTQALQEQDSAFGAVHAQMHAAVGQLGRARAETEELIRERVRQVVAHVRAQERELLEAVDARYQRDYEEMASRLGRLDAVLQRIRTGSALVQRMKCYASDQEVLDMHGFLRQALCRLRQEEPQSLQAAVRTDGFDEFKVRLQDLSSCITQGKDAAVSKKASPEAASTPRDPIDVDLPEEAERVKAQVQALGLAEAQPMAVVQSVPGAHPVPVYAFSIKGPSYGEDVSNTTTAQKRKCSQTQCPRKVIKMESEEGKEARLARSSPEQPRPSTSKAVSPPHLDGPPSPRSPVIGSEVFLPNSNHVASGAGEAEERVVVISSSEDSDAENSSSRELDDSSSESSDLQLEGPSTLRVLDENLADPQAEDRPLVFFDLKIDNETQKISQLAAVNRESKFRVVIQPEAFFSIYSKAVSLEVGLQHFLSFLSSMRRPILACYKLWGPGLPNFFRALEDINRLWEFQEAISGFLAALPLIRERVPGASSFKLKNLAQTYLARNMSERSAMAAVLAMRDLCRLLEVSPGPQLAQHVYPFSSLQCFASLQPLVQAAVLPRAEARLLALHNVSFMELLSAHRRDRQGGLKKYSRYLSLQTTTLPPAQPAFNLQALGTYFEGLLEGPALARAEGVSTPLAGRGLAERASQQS

Target: promyelocytic leukaemia protein (PML), endogenous (human (endogenous in U-2OS)) (UniProt P29590)
Assay: co-IP

binding: binds
B1: Anillin (ANLN), endogenous (protein, UniProt Q9NQW6 1-1124)
chain: MDPFTEKLLERTRARRENLQRKMAERPTAAPRSMTHAKRARQPLSEASNQQPLSGGEEKSCTKPSPSKKRCSDNTEVEVSNLENKQPVESTSAKSCSPSPVSPQVQPQAADTISDSVAVPASLLGMRRGLNSRLEATAASSVKTRMQKLAEQRRRWDNDDMTDDIPESSLFSPMPSEEKAASPPRPLLSNASATPVGRRGRLANLAATICSWEDDVNHSFAKQNSVQEQPGTACLSKFSSASGASARINSSSVKQEATFCSQRDGDASLNKALSSSADDASLVNASISSSVKATSPVKSTTSITDAKSCEGQNPELLPKTPISPLKTGVSKPIVKSTLSQTVPSKGELSREICLQSQSKDKSTTPGGTGIKPFLERFGERCQEHSKESPARSTPHRTPIITPNTKAIQERLFKQDTSSSTTHLAQQLKQERQKELACLRGRFDKGNIWSAEKGGNSKSKQLETKQETHCQSTPLKKHQGVSKTQSLPVTEKVTENQIPAKNSSTEPKGFTECEMTKSSPLKITLFLEEDKSLKVTSDPKVEQKIEVIREIEMSVDDDDINSSKVINDLFSDVLEEGELDMEKSQEEMDQALAESSEEQEDALNISSMSLLAPLAQTVGVVSPESLVSTPRLELKDTSRSDESPKPGKFQRTRVPRAESGDSLGSEDRDLLYSIDAYRSQRFKETERPSIKQVIVRKEDVTSKLDEKNNAFPCQVNIKQKMQELNNEINMQQTVIYQASQALNCCVDEEHGKGSLEEAEAERLLLIATGKRTLLIDELNKLKNEGPQRKNKASPQSEFMPSKGSVTLSEIRLPLKADFVCSTVQKPDAANYYYLIILKAGAENMVATPLASTSNSLNGDALTFTTTFTLQDVSNDFEINIEVYSLVQKKDPSGLDKKKKTSKSKAITPKRLLTSITTKSNIHSSVMASPGGLSAVRTSNFALVGSYTLSLSSVGNTKFVLDKVPFLSSLEGHIYLKIKCQVNSSVEERGFLTIFEDVSGFGAWHRRWCVLSGNCISYWTYPDDEKRKNPIGRINLANCTSRQIEPANREFCARRNTFELITVRPQREDDRETLVSQCRDTLCVTKNWLSADTKEERDLWMQKLNQVLVDIRLWQPDACYKPIGKP
